Measurements as given in article PMC10033651.
Results are given in words; binding and its absence hold for the method and conditions named. In cells and extracts the contact can be indirect.

Chains of the proteins cited; added tags and fusions are not shown. Lines headed by an entry give the natural chain unless they say otherwise; changes in a name come on top. A line that says so, or that is headed by a name, gives the form on record, which may keep a tag or linker.
UniProt Q14694: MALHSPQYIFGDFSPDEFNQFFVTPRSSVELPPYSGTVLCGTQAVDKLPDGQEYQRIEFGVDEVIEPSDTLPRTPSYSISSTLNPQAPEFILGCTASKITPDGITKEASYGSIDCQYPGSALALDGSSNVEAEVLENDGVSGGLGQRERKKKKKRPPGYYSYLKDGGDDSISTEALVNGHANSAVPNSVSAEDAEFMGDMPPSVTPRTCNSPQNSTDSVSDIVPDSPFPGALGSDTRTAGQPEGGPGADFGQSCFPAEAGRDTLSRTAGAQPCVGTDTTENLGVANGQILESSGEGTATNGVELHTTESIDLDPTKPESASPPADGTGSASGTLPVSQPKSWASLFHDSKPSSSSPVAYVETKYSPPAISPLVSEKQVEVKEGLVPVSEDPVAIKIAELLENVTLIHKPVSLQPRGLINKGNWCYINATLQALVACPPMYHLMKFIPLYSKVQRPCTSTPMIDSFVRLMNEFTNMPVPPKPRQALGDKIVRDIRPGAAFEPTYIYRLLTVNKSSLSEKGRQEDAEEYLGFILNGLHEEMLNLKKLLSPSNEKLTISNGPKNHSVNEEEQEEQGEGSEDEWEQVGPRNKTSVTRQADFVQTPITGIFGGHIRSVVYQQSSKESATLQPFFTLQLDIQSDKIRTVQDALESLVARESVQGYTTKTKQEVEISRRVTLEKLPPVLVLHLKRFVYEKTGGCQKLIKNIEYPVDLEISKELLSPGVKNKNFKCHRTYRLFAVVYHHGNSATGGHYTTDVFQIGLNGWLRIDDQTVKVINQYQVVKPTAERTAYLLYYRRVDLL
His-tagged full-length (FL) RUNX1 (Q01196-8, form named): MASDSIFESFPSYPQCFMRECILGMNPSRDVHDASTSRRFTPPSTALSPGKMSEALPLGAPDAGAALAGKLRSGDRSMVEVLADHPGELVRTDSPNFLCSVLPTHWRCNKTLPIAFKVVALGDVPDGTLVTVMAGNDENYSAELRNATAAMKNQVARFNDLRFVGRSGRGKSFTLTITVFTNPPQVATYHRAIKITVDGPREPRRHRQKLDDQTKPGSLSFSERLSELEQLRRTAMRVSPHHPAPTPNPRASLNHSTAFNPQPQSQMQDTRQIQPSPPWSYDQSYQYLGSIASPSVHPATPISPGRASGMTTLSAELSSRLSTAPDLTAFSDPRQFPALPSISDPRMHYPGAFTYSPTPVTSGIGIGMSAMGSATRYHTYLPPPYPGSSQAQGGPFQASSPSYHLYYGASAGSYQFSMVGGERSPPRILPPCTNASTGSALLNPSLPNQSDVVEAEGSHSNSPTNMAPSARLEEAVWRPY

Biological target: Flag-tagged USP10 deletion mutant lacking the N-terminal regulatory domain (1-206) (UniProt Q14694)
Assay: co-IP; His-RUNX1 and Flag-USP10 (full length, C424A or deletion mutants) in HEK293T cells; NETN buffer, protein A/G agarose beads, 4 °C, four washes

binding: no binding
Substance: His-tagged full-length (FL) RUNX1 (from UniProt Q01196-8 1-480)
